Results are given in words; binding and its absence hold for the method and conditions named. Binding calls can cover weak binding; strength is not graded here. Where a sequence is shown, tags or fusion partners need not be part of it.
Experiments:
[1] = molecular target: T1, C-terminal half of AtLUX (AtLUX-C, a.a. 144-324), yeast two-hybrid fusion (Arabidopsis thaliana) (UniProt Q9SNB4); assay: two-hybrid; DBD fusions in S. cerevisiae Y187 and AD fusions in AH109, mated; diploids replica plated on CSM -Leu -Trp -His with extra adenine and 2 mM 3AT; 4 days at 30°C
T1 sequence: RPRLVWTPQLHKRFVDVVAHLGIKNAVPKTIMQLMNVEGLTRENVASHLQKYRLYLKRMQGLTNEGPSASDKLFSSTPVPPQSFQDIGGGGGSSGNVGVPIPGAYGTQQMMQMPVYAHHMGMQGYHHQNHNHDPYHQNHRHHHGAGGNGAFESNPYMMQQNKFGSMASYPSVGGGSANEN

[2] = molecular target: T2, AtELF4, yeast two-hybrid fusion (Arabidopsis thaliana) (UniProt O04211); assay: as above
T2 sequence: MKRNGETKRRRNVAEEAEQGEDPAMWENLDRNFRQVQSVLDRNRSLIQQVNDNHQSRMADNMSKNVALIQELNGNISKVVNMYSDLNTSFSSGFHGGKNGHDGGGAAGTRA

binding [1]	binding [2]	Substance
binds	binds	BdELF3, yeast two-hybrid fusion (Brachypodium distachyon)
binds	binds	SvELF3, yeast two-hybrid fusion (Setaria viridis)

From PMC6508535
